# Data taken from the supplement of paper PMC10849652.
# Amino acid sequences for entries named in this document (tags omitted). A change or cut given only in a name is not applied to a line headed by its entry.
# UniProt O14662: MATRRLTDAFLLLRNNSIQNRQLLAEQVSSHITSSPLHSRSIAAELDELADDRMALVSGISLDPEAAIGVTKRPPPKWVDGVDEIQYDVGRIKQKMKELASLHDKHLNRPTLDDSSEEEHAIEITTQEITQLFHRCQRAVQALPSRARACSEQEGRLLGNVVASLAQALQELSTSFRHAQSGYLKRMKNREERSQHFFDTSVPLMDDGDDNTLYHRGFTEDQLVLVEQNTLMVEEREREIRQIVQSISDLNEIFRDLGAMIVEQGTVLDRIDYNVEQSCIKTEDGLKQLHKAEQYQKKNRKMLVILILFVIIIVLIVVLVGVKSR
# UniProt Q13148, whole entry, looked up: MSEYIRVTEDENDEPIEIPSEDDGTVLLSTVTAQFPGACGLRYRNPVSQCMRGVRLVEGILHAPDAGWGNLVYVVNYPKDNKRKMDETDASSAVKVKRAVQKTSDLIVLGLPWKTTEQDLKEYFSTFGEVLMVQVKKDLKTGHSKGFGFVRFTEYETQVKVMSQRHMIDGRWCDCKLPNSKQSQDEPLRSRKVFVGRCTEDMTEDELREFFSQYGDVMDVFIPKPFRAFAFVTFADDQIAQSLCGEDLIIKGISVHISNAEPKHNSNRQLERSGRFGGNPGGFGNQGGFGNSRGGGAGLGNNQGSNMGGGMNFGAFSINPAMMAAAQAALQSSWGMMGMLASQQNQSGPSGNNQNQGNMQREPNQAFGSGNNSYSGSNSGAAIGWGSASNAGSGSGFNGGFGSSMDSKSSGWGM
# UniProt Q13395: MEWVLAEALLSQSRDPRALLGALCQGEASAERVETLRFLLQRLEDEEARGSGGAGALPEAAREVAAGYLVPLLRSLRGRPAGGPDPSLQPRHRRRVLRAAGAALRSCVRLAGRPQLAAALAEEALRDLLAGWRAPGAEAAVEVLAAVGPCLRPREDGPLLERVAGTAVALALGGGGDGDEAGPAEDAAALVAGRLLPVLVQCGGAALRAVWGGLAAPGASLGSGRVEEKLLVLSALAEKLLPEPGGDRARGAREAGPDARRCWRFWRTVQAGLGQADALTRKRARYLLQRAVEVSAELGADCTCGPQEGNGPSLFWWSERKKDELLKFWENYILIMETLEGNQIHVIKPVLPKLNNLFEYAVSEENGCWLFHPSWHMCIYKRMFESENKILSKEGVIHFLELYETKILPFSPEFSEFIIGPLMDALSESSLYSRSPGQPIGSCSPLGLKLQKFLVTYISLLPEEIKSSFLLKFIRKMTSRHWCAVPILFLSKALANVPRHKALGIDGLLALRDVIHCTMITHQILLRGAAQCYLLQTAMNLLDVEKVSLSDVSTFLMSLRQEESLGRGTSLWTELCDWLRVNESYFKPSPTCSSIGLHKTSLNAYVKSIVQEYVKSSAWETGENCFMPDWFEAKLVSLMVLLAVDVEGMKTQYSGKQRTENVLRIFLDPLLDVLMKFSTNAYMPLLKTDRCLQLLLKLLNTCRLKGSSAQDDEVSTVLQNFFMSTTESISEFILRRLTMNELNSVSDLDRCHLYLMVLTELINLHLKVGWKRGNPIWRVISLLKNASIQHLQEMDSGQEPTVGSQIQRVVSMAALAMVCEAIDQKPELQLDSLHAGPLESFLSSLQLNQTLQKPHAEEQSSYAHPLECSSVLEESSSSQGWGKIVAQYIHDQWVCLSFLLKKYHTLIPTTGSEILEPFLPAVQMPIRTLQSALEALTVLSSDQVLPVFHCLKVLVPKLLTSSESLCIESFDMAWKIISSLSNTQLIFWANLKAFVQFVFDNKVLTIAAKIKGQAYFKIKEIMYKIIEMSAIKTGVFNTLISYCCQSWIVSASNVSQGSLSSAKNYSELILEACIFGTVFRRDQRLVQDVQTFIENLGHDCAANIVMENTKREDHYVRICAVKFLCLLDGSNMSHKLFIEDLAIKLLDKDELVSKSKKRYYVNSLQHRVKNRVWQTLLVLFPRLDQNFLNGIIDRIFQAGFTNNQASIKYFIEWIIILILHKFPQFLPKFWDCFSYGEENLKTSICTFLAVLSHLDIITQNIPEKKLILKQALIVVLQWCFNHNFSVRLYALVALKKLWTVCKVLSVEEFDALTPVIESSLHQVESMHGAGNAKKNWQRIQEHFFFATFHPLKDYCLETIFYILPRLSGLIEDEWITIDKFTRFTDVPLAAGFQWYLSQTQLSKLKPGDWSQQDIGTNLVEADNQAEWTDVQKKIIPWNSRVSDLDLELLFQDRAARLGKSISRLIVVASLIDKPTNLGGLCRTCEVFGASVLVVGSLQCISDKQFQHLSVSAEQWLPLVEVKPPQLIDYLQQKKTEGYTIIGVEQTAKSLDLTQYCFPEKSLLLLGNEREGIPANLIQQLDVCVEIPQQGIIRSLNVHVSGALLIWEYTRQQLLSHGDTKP
# UniProt O15533, whole entry, looked up: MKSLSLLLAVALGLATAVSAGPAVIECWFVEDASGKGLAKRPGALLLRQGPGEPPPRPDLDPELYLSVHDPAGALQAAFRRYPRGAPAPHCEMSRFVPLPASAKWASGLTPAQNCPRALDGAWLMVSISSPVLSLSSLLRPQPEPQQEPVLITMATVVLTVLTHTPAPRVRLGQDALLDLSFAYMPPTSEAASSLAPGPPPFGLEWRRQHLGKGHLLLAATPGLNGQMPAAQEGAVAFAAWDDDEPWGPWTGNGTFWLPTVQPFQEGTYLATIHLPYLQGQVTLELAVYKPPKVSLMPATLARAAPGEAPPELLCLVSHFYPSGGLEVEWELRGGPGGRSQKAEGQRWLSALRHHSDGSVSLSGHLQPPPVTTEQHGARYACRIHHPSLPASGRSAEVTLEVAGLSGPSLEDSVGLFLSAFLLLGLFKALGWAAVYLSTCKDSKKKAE
# UniProt P50225: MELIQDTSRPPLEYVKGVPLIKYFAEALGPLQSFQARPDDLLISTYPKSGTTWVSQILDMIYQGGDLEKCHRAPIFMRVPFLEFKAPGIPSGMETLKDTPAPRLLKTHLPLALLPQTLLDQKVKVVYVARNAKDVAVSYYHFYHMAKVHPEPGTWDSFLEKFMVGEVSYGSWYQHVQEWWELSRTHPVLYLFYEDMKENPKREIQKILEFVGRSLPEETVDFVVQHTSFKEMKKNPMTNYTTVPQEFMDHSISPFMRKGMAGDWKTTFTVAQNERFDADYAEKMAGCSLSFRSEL
# UniProt Q15633: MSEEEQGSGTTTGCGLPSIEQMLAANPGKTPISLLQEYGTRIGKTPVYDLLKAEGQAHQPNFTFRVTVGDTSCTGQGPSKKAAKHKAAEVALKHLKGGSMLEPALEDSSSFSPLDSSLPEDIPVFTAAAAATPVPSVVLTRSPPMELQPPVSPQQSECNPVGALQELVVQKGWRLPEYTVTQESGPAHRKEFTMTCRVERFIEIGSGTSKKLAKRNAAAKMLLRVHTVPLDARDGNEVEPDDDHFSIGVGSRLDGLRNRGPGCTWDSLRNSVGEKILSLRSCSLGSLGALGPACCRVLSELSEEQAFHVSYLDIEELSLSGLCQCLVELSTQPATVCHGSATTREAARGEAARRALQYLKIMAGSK
# UniProt Q9UH65: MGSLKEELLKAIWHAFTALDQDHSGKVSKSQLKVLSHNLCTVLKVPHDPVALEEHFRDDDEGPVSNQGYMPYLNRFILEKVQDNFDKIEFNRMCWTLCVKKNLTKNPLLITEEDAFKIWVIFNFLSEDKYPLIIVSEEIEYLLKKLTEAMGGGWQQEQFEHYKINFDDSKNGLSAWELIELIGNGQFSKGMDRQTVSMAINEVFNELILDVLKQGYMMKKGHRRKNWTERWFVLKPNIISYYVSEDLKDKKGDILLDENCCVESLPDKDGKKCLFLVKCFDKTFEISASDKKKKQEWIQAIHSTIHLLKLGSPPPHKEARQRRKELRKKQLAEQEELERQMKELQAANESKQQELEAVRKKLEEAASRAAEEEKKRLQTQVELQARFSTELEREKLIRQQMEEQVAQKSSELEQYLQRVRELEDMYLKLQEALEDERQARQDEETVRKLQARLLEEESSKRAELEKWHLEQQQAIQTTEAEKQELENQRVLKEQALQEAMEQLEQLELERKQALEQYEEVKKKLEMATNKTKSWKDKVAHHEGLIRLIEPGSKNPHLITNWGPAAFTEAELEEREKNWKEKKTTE
# UniProt Q7RTN6: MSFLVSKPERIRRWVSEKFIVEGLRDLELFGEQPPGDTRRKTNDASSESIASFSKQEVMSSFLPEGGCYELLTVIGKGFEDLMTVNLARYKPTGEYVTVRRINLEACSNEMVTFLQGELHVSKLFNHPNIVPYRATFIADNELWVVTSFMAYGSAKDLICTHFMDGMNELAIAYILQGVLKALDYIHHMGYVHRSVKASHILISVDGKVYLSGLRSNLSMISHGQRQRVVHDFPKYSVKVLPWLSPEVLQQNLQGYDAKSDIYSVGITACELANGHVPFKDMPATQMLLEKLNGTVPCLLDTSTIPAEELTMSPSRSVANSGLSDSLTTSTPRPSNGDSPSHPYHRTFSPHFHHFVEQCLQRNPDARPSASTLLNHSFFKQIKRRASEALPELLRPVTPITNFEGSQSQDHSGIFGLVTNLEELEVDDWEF
# UniProt Q96I99: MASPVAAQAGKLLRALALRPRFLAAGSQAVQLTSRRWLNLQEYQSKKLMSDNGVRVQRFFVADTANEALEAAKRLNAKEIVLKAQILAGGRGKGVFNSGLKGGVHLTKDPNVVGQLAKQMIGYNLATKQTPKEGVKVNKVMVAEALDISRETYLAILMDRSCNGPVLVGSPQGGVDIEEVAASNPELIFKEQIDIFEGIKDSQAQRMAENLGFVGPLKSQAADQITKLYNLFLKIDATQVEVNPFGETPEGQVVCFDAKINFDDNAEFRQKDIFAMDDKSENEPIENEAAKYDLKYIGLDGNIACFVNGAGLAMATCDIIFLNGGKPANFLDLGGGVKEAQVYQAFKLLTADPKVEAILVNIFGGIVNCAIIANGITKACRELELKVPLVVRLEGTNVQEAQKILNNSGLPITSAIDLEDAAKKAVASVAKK
# UniProt Q96A49: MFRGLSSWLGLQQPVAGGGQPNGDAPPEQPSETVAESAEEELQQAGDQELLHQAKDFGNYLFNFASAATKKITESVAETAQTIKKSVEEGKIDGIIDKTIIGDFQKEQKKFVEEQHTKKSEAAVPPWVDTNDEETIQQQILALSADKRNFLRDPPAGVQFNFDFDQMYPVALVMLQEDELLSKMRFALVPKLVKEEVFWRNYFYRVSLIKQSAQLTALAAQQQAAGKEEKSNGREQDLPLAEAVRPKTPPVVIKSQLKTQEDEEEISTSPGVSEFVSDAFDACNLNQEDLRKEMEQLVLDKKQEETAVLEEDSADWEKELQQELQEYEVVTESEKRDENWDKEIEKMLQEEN
# UniProt Q9UJZ1: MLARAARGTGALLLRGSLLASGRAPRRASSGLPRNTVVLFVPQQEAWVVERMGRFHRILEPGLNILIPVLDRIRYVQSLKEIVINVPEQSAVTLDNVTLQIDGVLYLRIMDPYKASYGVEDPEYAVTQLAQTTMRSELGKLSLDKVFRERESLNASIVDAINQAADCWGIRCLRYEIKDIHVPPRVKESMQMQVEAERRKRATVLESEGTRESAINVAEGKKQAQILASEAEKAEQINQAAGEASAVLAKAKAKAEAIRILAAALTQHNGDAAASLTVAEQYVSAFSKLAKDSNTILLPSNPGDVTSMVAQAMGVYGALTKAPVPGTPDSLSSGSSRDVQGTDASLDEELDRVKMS
# UniProt O94901, whole entry, looked up: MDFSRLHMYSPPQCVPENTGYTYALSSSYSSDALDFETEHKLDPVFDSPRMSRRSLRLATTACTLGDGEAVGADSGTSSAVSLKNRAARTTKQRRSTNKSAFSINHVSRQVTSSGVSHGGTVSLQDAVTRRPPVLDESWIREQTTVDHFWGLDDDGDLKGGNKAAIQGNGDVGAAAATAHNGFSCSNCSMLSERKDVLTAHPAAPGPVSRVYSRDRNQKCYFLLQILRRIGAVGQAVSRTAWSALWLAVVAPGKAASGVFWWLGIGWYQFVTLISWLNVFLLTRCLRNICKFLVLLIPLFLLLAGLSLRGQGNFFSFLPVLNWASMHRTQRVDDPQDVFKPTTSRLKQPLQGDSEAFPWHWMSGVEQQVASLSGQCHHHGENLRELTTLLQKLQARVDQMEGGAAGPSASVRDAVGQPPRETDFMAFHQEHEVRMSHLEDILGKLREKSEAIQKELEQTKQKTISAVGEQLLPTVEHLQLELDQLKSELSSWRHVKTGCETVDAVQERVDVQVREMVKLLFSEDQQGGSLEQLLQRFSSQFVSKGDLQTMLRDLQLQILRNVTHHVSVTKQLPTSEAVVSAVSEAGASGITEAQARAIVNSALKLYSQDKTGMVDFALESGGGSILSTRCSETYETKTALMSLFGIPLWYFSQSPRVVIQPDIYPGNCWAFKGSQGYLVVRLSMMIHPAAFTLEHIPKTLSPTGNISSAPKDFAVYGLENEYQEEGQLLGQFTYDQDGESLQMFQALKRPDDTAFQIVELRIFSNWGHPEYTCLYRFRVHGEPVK
# The list shows a part of the results.
# Columns and labels:
# Assay in all cases: log2 fold change, soluble protein after heating vs DMSO (PISA); higher = thermal stabilisation; K562 cells, 10 uM, 30 min; active = over 0.2 and 3.5 SD of the protein, either way, in both replicates (recomputed)
# [1] = compound: COC1=CC=C(C=C1)CN2C=CC3=C2C=C(C=C3)C(=O)NO
# Outline: (§1)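 Thermal stability values are relative to control samples and come from duplicates. They are expressed as log2 fold changes. For measurement, K562 cells (2×10^6 cells/mL) received 10 μM compound for 30 min, and aliquots were heated for 3 min over 48°C-58°C, pooled, and extracted at 4°C in PBS with 0.5% NP-40. Soluble protein, the supernatant after 21,000xg for 90 min, was quantified by TMTpro 16plex LC-MS/MS with equalised channel sums.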
# filanesib = compound: CON(C)C(=O)N1N=C(c2cc(F)ccc2F)S[C@@]1(CCCN)c1ccccc1 [filanesib]
# Outline: as §1
# zotarolimus = compound: CO[C@H]1C[C@@H]2CC[C@@H](C)[C@@](O)(O2)C(=O)C(=O)N2CCCC[C@H]2C(=O)O[C@H]([C@H](C)C[C@@H]2CC[C@H](n3cnnn3)[C@H](OC)C2)CC(=O)[C@H](C)/C=C(\C)[C@@H](O)[C@@H](OC)C(=O)[C@H](C)C[C@H](C)/C=C/C=C/C=C/1C [zotarolimus]
# Outline: as §1
# idasanutlin = compound: COc1cc(C(=O)O)ccc1NC(=O)[C@@H]1N[C@@H](CC(C)(C)C)[C@](C#N)(c2ccc(Cl)cc2F)[C@H]1c1cccc(Cl)c1F [idasanutlin]
# Outline: as §1
# alisertib = compound: COc1cc(Nc2ncc3c(n2)-c2ccc(Cl)cc2C(c2c(F)cccc2OC)=NC3)ccc1C(=O)O [alisertib]
# Outline: as §1
# [2] = compound: COc1cc2nc(-c3cc(F)ccc3O)nc(N[C@@H]3CNC[C@H]3C(C)(C)O)c2cc1OC
# Outline: as §1
# gefitinib = compound: COc1cc2ncnc(Nc3ccc(F)c(Cl)c3)c2cc1OCCCN1CCOCC1 [gefitinib]
# Outline: as §1
# [3] = compound: COc1cccc2cc(-c3nc([C@H]4CC[C@H](C(=O)O)CC4)n4ncnc(N)c34)[nH]c12
# Outline: as §1
# lapatinib = compound: CS(=O)(=O)CCNCc1ccc(-c2ccc3ncnc(Nc4ccc(OCc5cccc(F)c5)c(Cl)c4)c3c2)o1 [lapatinib]
# Outline: as §1
# pictilisib = compound: CS(=O)(=O)N1CCN(Cc2cc3nc(-c4cccc5[nH]ncc45)nc(N4CCOCC4)c3s2)CC1 [pictilisib]
# Outline: as §1
# [4] = compound: CS(=O)(=O)c1ccc(-c2cnc(N)c(C(=O)Nc3ccccc3)n2)cc1
# Outline: as §1
# crizotinib = compound: C[C@@H](Oc1cc(-c2cnn(C3CCNCC3)c2)cnc1N)c1c(Cl)ccc(F)c1Cl [crizotinib]
# Outline: as §1
# [5] = compound: C[C@@H]1COCCN1C2=NC(=NC(=C2)C3(CC3)S(=O)(=O)C)C4=C5C=CNC5=CC=C4
# Outline: as §1
# [6] = compound: C[C@H](C1=CC=C(C=C1)C(=O)NC2=C3C=CNC3=NC=C2)N
# Outline: as §1
# duvelisib = compound: C[C@H](Nc1ncnc2nc[nH]c12)c1cc2cccc(Cl)c2c(=O)n1-c1ccccc1 [duvelisib]
# Outline: as §1
# gandotinib = compound: Cc1cc(Nc2cc(CN3CCOCC3)c3nc(C)c(Cc4ccc(Cl)cc4F)n3n2)n[nH]1 [gandotinib]
# Outline: as §1
# tozasertib = compound: Cc1cc(Nc2cc(N3CCN(C)CC3)nc(Sc3ccc(NC(=O)C4CC4)cc3)n2)n[nH]1 [tozasertib]
# Outline: as §1
# [7] = compound: Cc1cc(SCc2sc(-c3ccc(C(F)(F)F)cc3)nc2C)ccc1OCC(=O)O
# Outline: as §1
# doramapimod = compound: Cc1ccc(-n2nc(C(C)(C)C)cc2NC(=O)Nc2ccc(OCCN3CCOCC3)c3ccccc23)cc1 [doramapimod]
# Outline: as §1
# ispinesib = compound: Cc1ccc(C(=O)N(CCCN)[C@@H](c2nc3cc(Cl)ccc3c(=O)n2Cc2ccccc2)C(C)C)cc1 [ispinesib]
# Outline: as §1
Target,log2 fold change [1],log2 fold change (filanesib),log2 fold change (zotarolimus),log2 fold change (idasanutlin),log2 fold change (alisertib),log2 fold change [2],log2 fold change (gefitinib),log2 fold change [3],log2 fold change (lapatinib),log2 fold change (pictilisib),log2 fold change [4],log2 fold change (crizotinib),log2 fold change [5],log2 fold change [6],log2 fold change (duvelisib),log2 fold change (gandotinib),log2 fold change (tozasertib),log2 fold change [7],log2 fold change (doramapimod),log2 fold change (ispinesib)
STX16 isoform 2 (UniProt O14662),inactive: 0.121,inactive: 0.016,inactive: 0.007,inactive: -0.011,inactive: -0.008,inactive: 0.071,inactive: -0.001,inactive: 0.034,inactive: -0.059,inactive: 0.011,inactive: 0.029,inactive: -0.052,inactive: 0.006,inactive: 0.04,inactive: 0.057,inactive: -0.02,inactive: -0.09,inactive: 0.021,inactive: -0.102,inactive: -0.055
TARDBP (UniProt Q13148),inactive: -0.156,inactive: 0.189,inactive: 0.009,inactive: 0.221,inactive: 0.054,inactive: -0.081,inactive: 0.042,inactive: -0.24,inactive: 0.105,inactive: -0.029,inactive: 0.036,inactive: -0.069,inactive: -0.051,inactive: 0.298,,inactive: -0.051,inactive: 0.073,,inactive: 0.049,inactive: -0.099
TARBP1 (UniProt Q13395),inactive: -0.036,inactive: -0.077,inactive: 0.105,inactive: -0.027,inactive: 0.096,inactive: 0.049,inactive: -0.026,inactive: -0.019,inactive: -0.015,inactive: -0.078,inactive: 0.076,inactive: 0.016,inactive: 0.028,inactive: -0.074,,inactive: -0.075,,inactive: 0.038,inactive: -0.004,inactive: 0.026
SUOX (UniProt P51687),inactive: -0.321,inactive: -0.014,inactive: 0.02,inactive: 0.013,inactive: -0.014,inactive: 0.088,inactive: 0.007,inactive: 0.022,inactive: -0.088,inactive: 0.158,inactive: 0.016,inactive: 0.076,inactive: 0.098,inactive: 0.001,,inactive: 0.063,,inactive: -0.075,inactive: -0.338,inactive: -0.034
TAPBP isoform 3 (UniProt O15533),inactive: 0.175,inactive: -0.052,inactive: 0.103,inactive: 0.099,inactive: 0.062,inactive: -0.116,inactive: -0.025,inactive: 0.024,inactive: 0.225,inactive: -0.176,inactive: -0.145,inactive: -0.171,inactive: -0.12,inactive: -0.117,,inactive: 0.004,inactive: 0.059,,inactive: -0.054,inactive: -0.067
STX8 (UniProt Q9UNK0),inactive: -0.04,inactive: 0.018,inactive: -0.088,inactive: 0.082,inactive: -0.048,inactive: -0.008,inactive: -0.022,inactive: 0.065,inactive: -0.021,inactive: -0.018,inactive: -0.039,inactive: -0.117,inactive: 0.057,inactive: 0.008,inactive: 0.007,inactive: 0.033,inactive: -0.012,inactive: -0.025,inactive: 0.056,inactive: -0.224
SULT1A1 (UniProt P50225),inactive: 0.161,inactive: 0.034,inactive: 0.042,inactive: -0.02,inactive: 0.056,inactive: 0.046,inactive: 0.062,inactive: -0.03,inactive: 0.026,inactive: 0.138,inactive: -0.019,inactive: 0.065,inactive: 0.065,inactive: -0.073,,inactive: -0.029,,inactive: 0.035,inactive: 0.016,inactive: -0.018
TARBP2 (UniProt Q15633),inactive: -0.159,inactive: 0.065,inactive: -0.125,inactive: 0.152,inactive: 0.005,inactive: 0.034,inactive: 0.061,inactive: -0.162,inactive: -0.078,inactive: 0.008,inactive: 0.121,inactive: -0.139,inactive: -0.171,inactive: 0.242,inactive: 0.007,inactive: 0.143,inactive: 0.06,inactive: 0.032,inactive: 0.174,inactive: 0.076
SUPT6H (UniProt Q7KZ85),inactive: 0.088,inactive: -0.035,inactive: -0.081,inactive: -0.07,inactive: 0.203,inactive: 0.066,inactive: -0.122,inactive: -0.12,inactive: -0.136,inactive: -0.028,inactive: 0.064,inactive: 0.083,inactive: 0.15,inactive: 0.214,inactive: 0.053,inactive: -0.132,inactive: -0.025,inactive: 0.233,inactive: -0.117,inactive: -0.034
SWAP70 (UniProt Q9UH65),inactive: 0.036,inactive: -0.053,inactive: -0.018,inactive: -0.07,inactive: -0.015,inactive: 0.014,inactive: 0.028,inactive: 0.02,inactive: 0.019,inactive: -0.026,inactive: 0.014,inactive: -0.024,inactive: -0.014,inactive: -0.135,inactive: 0.036,inactive: -0.075,inactive: 0.008,inactive: -0.03,inactive: -0.009,inactive: 0.031
STRADA (UniProt Q7RTN6),inactive: 0.003,inactive: 0.081,inactive: -0.024,inactive: 0.019,inactive: -0.154,inactive: 0.043,inactive: -0.036,inactive: 0.071,inactive: 0.026,inactive: -0.059,inactive: -0.007,inactive: -0.007,inactive: 0.069,inactive: -0.072,inactive: 0.033,inactive: -0.065,inactive: 0.022,inactive: -0.009,inactive: 0.012,inactive: 0.013
SUCLG2 (UniProt Q96I99),inactive: 0.05,inactive: -0.101,inactive: 0.019,inactive: -0.088,inactive: 0.007,inactive: 0.043,inactive: 0.011,inactive: 0.046,inactive: -0.036,inactive: -0.011,inactive: -0.002,inactive: -0.014,inactive: 0.134,inactive: -0.067,inactive: 0.02,inactive: -0.046,inactive: -0.024,inactive: -0.005,inactive: -0.009,inactive: -0.022
SYAP1 (UniProt Q96A49),inactive: -0.028,inactive: -0.035,inactive: -0.003,inactive: -0.002,inactive: -0.028,inactive: -0.016,inactive: -0.008,inactive: -0.001,inactive: -0.038,inactive: -0.009,inactive: 0.028,inactive: -0.037,inactive: 0.04,inactive: -0.059,inactive: 0.039,inactive: -0.093,inactive: 0.017,inactive: -0.005,inactive: 0.031,inactive: -0.003
STX12 (UniProt Q86Y82),inactive: 0.013,inactive: -0.033,inactive: -0.064,inactive: -0.022,inactive: -0.034,inactive: 0.021,inactive: 0.035,inactive: 0.031,inactive: -0.001,inactive: 0.074,inactive: 0.002,inactive: -0.049,inactive: 0.01,inactive: -0.036,inactive: 0.048,inactive: -0.023,inactive: -0.035,inactive: 0.007,inactive: 0.02,inactive: -0.075
SUB1 (UniProt P53999),inactive: -0.064,inactive: 0.004,inactive: -0.003,inactive: 0.015,inactive: 0.023,inactive: 0.022,inactive: 0.029,inactive: 0.011,inactive: -0.036,inactive: 0.032,inactive: 0.012,inactive: 0.01,inactive: 0.022,inactive: 0,inactive: 0.011,inactive: -0.006,inactive: -0.032,inactive: -0.051,inactive: 0.014,inactive: -0.015
STOML2 (UniProt Q9UJZ1),inactive: 0.041,inactive: -0.011,inactive: 0.018,inactive: 0.018,inactive: 0.016,inactive: 0.022,inactive: -0.007,inactive: 0.016,inactive: -0.014,inactive: -0.076,inactive: -0.02,inactive: 0.075,inactive: -0.021,inactive: 0.031,inactive: 0.039,inactive: -0.097,inactive: -0.003,inactive: -0.019,inactive: -0.014,inactive: 0.051
SUN1 isoform 9 (UniProt O94901),inactive: -0.062,inactive: 0.084,inactive: 0.162,inactive: 0.02,inactive: -0.059,inactive: -0.14,inactive: -0.053,inactive: 0.122,inactive: 0.052,inactive: -0.002,inactive: -0.03,inactive: -0.067,inactive: -0.005,inactive: 0.006,,inactive: -0.052,,inactive: -0.017,inactive: 0.089,active: -0.324

# A different layout for some results above:
Target	log2 fold change [1]	log2 fold change (filanesib)	log2 fold change (zotarolimus)	log2 fold change (idasanutlin)	log2 fold change (alisertib)	log2 fold change [2]	log2 fold change (gefitinib)	log2 fold change [3]	log2 fold change (lapatinib)	log2 fold change (pictilisib)	log2 fold change [4]	log2 fold change (crizotinib)	log2 fold change [5]	log2 fold change [6]	log2 fold change (duvelisib)	log2 fold change (gandotinib)	log2 fold change (tozasertib)	log2 fold change [7]	log2 fold change (doramapimod)	log2 fold change (ispinesib)
SULT1A1 (UniProt P50225)	inactive: 0.161	inactive: 0.034	inactive: 0.042	inactive: -0.02	inactive: 0.056	inactive: 0.046	inactive: 0.062	inactive: -0.03	inactive: 0.026	inactive: 0.138	inactive: -0.019	inactive: 0.065	inactive: 0.065	inactive: -0.073		inactive: -0.029		inactive: 0.035	inactive: 0.016	inactive: -0.018
TARBP2 (UniProt Q15633)	inactive: -0.159	inactive: 0.065	inactive: -0.125	inactive: 0.152	inactive: 0.005	inactive: 0.034	inactive: 0.061	inactive: -0.162	inactive: -0.078	inactive: 0.008	inactive: 0.121	inactive: -0.139	inactive: -0.171	inactive: 0.242	inactive: 0.007	inactive: 0.143	inactive: 0.06	inactive: 0.032	inactive: 0.174	inactive: 0.076
